According to the supplement of paper PMC10849652:
The list shows a part of the results.

Chains of the proteins cited; added tags and fusions are not shown. Lines headed by an entry give the natural chain unless they say otherwise; changes in a name come on top.
UniProt Q96PE7: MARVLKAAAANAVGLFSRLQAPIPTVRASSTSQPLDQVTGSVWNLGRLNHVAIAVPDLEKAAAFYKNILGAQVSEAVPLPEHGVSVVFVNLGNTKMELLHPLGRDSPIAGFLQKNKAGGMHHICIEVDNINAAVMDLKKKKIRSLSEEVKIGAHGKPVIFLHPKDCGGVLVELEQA
UniProt Q86W50: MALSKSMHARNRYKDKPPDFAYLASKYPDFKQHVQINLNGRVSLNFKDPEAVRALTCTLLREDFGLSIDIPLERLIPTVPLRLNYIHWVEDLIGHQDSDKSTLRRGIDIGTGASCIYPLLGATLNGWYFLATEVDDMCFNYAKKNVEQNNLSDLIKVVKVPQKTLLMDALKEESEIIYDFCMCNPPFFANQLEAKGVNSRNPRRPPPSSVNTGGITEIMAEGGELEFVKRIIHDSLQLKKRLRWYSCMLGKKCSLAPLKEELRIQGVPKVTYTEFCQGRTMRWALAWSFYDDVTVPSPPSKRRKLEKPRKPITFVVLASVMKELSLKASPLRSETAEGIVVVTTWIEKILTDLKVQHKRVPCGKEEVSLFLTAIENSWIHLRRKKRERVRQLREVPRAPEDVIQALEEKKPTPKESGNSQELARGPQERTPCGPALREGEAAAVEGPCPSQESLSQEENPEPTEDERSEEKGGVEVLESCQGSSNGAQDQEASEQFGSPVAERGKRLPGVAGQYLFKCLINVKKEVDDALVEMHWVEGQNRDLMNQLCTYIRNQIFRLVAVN
UniProt Q86V88: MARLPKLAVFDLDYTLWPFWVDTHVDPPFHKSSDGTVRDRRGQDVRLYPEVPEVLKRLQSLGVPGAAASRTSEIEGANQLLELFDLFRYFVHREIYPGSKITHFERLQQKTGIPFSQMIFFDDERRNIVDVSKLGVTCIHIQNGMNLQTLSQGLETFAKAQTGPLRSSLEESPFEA
UniProt Q14814: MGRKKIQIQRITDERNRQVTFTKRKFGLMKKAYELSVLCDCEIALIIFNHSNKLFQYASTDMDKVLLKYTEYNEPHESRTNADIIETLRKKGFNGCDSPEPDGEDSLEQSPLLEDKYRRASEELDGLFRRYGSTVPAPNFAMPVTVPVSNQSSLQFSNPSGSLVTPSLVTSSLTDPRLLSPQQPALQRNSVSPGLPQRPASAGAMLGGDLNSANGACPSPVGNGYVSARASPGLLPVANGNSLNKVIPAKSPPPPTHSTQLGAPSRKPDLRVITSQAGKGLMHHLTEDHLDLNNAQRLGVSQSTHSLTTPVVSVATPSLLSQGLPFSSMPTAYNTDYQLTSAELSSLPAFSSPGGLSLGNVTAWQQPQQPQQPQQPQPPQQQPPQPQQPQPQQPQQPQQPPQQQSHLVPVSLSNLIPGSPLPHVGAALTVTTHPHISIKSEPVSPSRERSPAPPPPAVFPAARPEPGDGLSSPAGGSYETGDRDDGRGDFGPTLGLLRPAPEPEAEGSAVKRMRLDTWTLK
UniProt Q9Y3C7: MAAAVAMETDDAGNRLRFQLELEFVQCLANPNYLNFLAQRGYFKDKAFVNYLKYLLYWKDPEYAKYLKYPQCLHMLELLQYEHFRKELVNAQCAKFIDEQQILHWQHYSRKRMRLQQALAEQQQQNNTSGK
UniProt Q9H944: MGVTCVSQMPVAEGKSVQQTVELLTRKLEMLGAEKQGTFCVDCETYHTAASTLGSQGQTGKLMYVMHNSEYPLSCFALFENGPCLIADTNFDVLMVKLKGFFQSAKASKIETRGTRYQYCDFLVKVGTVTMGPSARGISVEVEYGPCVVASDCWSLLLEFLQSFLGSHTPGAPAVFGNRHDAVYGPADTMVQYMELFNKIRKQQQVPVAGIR
UniProt Q6P9B6: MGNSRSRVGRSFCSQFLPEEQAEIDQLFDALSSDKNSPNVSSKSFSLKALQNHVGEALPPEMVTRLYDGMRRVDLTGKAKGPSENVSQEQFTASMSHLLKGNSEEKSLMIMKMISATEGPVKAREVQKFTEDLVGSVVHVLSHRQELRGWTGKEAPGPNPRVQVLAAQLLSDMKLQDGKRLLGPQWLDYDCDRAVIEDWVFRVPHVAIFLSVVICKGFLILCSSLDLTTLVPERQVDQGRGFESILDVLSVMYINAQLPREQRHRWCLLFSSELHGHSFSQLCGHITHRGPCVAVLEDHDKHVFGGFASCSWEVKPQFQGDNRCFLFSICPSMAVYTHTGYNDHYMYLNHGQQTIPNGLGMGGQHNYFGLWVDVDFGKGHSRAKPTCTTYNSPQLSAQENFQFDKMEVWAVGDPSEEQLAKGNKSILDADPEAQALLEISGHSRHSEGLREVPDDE
UniProt Q71F56: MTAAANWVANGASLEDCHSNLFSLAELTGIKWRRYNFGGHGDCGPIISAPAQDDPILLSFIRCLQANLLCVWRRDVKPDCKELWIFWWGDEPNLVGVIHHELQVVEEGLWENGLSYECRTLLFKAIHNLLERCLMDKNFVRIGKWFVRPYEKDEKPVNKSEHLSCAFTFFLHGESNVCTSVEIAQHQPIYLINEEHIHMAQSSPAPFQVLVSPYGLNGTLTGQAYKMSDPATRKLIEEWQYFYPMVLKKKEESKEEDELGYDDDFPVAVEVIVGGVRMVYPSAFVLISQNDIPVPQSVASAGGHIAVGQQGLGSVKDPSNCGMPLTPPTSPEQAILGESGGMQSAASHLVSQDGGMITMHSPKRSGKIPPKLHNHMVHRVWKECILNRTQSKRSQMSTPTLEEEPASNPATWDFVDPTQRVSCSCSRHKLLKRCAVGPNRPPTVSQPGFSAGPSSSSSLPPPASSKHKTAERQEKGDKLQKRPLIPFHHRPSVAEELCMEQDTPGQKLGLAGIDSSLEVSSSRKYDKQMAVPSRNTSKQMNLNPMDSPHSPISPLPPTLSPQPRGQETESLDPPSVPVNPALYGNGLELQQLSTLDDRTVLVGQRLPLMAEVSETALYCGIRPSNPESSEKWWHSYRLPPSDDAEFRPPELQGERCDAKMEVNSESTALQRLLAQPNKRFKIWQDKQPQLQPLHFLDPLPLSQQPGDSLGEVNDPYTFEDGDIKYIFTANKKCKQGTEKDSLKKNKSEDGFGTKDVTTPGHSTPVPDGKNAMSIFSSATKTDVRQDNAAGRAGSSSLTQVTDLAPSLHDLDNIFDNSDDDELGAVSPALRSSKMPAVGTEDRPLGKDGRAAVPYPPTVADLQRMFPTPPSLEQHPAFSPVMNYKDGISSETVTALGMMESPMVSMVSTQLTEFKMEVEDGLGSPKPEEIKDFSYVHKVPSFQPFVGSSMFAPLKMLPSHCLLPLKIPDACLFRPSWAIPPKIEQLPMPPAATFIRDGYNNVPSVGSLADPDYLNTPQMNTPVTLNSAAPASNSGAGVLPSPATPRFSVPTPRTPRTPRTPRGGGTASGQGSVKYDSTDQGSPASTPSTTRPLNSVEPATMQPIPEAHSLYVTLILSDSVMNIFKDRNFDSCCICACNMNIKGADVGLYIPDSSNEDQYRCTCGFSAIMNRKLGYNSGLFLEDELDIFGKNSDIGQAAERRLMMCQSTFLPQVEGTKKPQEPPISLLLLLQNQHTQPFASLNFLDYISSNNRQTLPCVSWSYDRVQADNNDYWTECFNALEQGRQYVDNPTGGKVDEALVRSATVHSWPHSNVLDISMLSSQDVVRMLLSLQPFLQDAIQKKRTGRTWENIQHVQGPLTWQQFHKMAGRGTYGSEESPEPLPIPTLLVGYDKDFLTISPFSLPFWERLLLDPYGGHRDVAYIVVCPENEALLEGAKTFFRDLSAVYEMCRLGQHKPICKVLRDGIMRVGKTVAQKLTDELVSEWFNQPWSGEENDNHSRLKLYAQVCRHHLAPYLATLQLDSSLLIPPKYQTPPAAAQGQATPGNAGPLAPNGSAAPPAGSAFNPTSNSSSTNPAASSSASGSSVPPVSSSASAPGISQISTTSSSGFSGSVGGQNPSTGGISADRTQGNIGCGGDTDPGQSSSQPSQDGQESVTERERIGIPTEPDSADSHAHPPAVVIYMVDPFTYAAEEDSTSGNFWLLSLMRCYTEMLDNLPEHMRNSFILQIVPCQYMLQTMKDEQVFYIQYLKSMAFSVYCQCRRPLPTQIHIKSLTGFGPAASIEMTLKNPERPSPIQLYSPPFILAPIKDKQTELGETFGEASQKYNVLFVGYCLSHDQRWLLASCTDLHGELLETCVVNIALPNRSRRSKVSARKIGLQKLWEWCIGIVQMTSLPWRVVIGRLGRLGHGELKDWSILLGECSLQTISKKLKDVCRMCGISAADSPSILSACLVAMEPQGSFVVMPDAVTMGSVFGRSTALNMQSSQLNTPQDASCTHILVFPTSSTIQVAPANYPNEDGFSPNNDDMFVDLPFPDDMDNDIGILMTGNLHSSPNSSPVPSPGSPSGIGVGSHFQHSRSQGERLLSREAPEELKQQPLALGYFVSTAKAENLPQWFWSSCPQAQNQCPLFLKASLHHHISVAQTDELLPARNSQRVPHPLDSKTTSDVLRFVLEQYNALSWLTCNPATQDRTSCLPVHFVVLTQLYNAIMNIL
UniProt Q9NRN9: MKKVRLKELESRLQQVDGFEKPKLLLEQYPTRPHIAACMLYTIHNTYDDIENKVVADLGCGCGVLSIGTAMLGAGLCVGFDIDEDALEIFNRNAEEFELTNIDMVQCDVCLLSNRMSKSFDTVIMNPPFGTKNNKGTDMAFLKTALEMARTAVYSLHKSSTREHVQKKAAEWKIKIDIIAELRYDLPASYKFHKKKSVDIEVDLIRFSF
UniProt P49736, whole entry, looked up: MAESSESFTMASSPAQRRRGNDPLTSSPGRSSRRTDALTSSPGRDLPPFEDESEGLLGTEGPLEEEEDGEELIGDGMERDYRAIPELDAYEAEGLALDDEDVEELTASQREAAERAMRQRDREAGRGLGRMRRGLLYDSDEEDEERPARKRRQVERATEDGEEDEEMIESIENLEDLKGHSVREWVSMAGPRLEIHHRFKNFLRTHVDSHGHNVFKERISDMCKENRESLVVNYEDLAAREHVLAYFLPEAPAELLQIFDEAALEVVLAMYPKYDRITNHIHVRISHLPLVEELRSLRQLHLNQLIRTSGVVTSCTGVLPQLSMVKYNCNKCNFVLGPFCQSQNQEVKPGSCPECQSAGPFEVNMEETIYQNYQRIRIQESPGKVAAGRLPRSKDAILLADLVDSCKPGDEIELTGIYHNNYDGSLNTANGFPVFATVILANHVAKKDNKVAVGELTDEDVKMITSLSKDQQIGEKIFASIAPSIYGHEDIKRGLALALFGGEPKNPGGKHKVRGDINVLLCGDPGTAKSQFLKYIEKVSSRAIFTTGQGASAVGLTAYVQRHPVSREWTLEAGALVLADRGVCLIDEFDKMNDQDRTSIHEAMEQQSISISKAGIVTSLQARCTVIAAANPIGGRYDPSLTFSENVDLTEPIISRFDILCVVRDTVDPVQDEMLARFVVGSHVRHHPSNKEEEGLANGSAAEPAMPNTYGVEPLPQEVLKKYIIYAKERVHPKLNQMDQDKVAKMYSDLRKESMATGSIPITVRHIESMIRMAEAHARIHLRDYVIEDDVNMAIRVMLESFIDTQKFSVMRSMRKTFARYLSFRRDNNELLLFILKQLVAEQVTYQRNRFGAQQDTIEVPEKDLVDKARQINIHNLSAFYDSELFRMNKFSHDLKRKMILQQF
UniProt Q16798: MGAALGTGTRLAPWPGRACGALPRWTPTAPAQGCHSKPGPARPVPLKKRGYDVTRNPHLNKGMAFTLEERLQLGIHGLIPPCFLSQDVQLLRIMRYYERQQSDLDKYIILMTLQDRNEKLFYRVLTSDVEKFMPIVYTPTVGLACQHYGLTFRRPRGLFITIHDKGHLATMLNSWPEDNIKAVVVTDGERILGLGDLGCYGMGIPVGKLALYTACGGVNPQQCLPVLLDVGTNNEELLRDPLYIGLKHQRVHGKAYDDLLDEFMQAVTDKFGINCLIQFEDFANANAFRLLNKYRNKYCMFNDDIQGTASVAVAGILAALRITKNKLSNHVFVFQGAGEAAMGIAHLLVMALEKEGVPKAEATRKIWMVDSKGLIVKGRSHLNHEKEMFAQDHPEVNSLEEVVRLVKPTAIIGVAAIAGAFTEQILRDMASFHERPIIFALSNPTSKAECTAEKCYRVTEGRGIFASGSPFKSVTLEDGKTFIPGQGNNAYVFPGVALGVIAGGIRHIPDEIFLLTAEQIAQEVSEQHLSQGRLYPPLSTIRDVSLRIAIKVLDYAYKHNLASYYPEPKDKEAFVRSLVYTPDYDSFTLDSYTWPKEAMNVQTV
UniProt C9JP00: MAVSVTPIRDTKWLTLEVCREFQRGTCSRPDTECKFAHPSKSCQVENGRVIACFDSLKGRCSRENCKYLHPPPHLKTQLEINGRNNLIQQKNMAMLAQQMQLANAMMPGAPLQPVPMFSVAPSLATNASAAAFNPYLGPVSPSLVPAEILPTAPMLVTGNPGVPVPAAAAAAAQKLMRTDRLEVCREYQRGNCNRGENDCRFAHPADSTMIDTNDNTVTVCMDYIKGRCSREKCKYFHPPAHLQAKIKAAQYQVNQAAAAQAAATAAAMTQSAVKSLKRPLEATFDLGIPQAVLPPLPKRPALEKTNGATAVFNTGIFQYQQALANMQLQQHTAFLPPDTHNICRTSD

Columns and labels:
Assay in all cases: log2 fold change, soluble protein after heating vs DMSO (PISA); higher = thermal stabilisation; K562 lysate, 10 uM; active = over 0.2 and 3.5 SD of the protein, either way, in both replicates (recomputed)
ibrutinib = compound: C=CC(=O)N1CCC[C@@H](n2nc(-c3ccc(Oc4ccccc4)cc3)c3c(N)ncnc32)C1 [ibrutinib]
Method in brief: (§1)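 Dounce homogenisation of K562 pellets in PBS pH 7.4 with 1 mM MgCl2 produced a crude extract, used at 1 mg/mL protein. Exposure to 10 μM compound lasted 30 min, and aliquots were then heated for 3 min across 48°C-58°C, pooled and brought to 0.5% NP-40 at 4°C. The supernatant after 21,000xg for 90 min was quantified by TMTpro 16plex LC-MS/MS with channel sums equalised. Duplicate values are given as log-two fold change in thermal stability relative to solvent controls.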

[1] = compound: CC(=O)c1cnc2ccc(-c3cc(Cl)c(O)c(Cl)c3)nc2c1N[C@H]1CC[C@H](CN(C)C)CC1
Method in brief: as §1

ralimetinib = compound: CC(C)(C)Cn1c(N)nc2ccc(-c3[nH]c(C(C)(C)C)nc3-c3ccc(F)cc3)nc21 [ralimetinib]
Method in brief: as §1

[2] = compound: CC(C)(O)CC(=O)NCCn1ccc2ncnc(Nc3ccc(Oc4cccc(C(F)(F)F)c4)c(Cl)c3)c21
Method in brief: as §1

[3] = compound: CC(C)C1=C2N=C(C=C(N2N=C1)NCC3=CC=CC=C3)NCCCCCCN
Method in brief: as §1

[4] = compound: CC1=C(C(CC(=O)N1)C2=CC=C(C=C2)C(F)(F)F)C(=O)NC3=C(C=C4C(=C3)C=NN4)F
Method in brief: as §1

[5] = compound: CC1=C(C2=C(C=C1)C(=O)C3=CC=CC=C3N2CCCN)C
Method in brief: as §1

[6] = compound: CC1=C(C=C(C=C1)NC(=O)C2=CC(=CC=C2)C(C)(C)C#N)NC3=CC4=C(C=C3)N=CN(C4=O)C
Method in brief: as §1

[7] = compound: CC1=C(C=C(C=C1)NC(=O)C2=CC(=CC=C2)N(C)C)NC(=O)C3=CC=C(C=C3)O
Method in brief: as §1

[8] = compound: CC1=CC=C(C=C1)SC2=C3C=C(SC3=CN=C2)C(=O)N
Method in brief: as §1

Measured: log2 fold change

MCTS1 isoform 3 (UniProt Q9ULC4)
inactive: ibrutinib 0.023 | [1] -0.009 | ralimetinib -0.038 | [2] 0.018 | [3] 0.043 | [4] -0.022 | [5] 0.015 | [6] 0 | [7] -0.033 | [8] 0.005

MCRIP1 (UniProt I3L4Q0)
inactive: ibrutinib 0.091 | [1] -0.005 | ralimetinib -0.016 | [2] -0.001 | [3] -0.009 | [4] -0.027 | [5] 0.029 | [6] 0.013 | [7] 0.029 | [8] -0.041

MCEE (UniProt Q96PE7)
inactive: ibrutinib 0.051 | [1] -0.014 | ralimetinib 0.062 | [2] 0.041 | [3] -0.08 | [4] -0.039 | [5] 0.021 | [6] -0.034 | [7] 0 | [8] -0.051

MAX (UniProt P61244)
inactive: ibrutinib -0.026 | [1] -0.019 | ralimetinib -0.012 | [2] -0.034 | [3] -0.001 | [4] 0.09 | [5] 0.001 | [6] 0.001 | [7] 0.009 | [8] -0.036

MED16 (UniProt Q9Y2X0)
inactive: ibrutinib -0.113 | [1] -0.012 | ralimetinib 0.057 | [2] 0.046 | [3] -0.014 | [4] 0.021 | [5] -0.01 | [6] -0.038 | [7] -0.018 | [8] 0.005

METTL16 (UniProt Q86W50)
inactive: ibrutinib 0.009 | [1] -0.02 | ralimetinib -0.023 | [2] -0.008 | [3] -0.007 | [4] 0.033 | [5] -0.019 | [6] -0.035 | [7] 0.024 | [8] 0.012

MDP1 (UniProt Q86V88)
inactive: ibrutinib 0.073 | [1] -0.018 | ralimetinib -0.004 | [2] -0.05 | [3] -0.013 | [4] 0.008 | [5] -0.061 | [6] 0.048 | [7] -0.004 | [8] 0.01

MCU (UniProt Q8NE86)
inactive: ibrutinib -0.05 | [1] 0.04 | ralimetinib 0.086 | [2] -0.021 | [3] -0.055 | [4] 0.014 | [5] 0.02 | [6] 0.034 | [7] 0.014 | [8] -0.023

MEF2D (UniProt Q14814)
inactive: ibrutinib 0.015 | [1] 0.01 | ralimetinib 0.08 | [2] -0.019 | [3] -0.003 | [4] 0.051 | [5] -0.003 | [6] -0.038 | [7] 0.013 | [8] 0.032

MBLAC2 (UniProt Q68D91)
inactive: ibrutinib 0.05 | [1] -0.005 | ralimetinib 0.069 | [2] 0.003 | [3] 0.035 | [4] 0.04 | [5] 0.037 | [6] -0.013 | [7] -0.044 | [8] -0.019

MCFD2 (UniProt Q8NI22)
inactive: ibrutinib 0.073 | [1] -0.043 | ralimetinib -0.054 | [2] -0.035 | [3] 0.039 | [4] 0.077 | [5] 0.049 | [6] 0.101 | [7] 0.041 | [8] 0.123

MCUR1 (UniProt Q96AQ8)
inactive: ibrutinib 0.005 | [1] -0.025 | ralimetinib 0.041 | [2] -0.027 | [3] -0.047 | [4] 0.003 | [5] -0.021 | [6] 0.005 | [7] -0.023 | [8] -0.035

MED31 (UniProt Q9Y3C7)
inactive: ibrutinib 0.092 | [1] -0.031 | ralimetinib 0.092 | [2] 0.002 | [3] -0.051 | [4] 0.109 | [5] 0.051 | [6] 0.016 | [7] 0.05 | [8] 0.051

MBD3 (UniProt O95983)
inactive: ibrutinib 0.023 | [1] -0.006 | ralimetinib -0.035 | [2] 0.018 | [3] -0.002 | [4] 0.028 | [5] 0.016 | [6] -0.035 | [7] 0.013 | [8] -0.007

MED20 (UniProt Q9H944)
inactive: ibrutinib 0.086 | [1] -0.024 | ralimetinib -0.028 | [2] -0.116 | [3] -0.032 | [4] -0.037 | [5] 0.012 | [6] 0.03 | [7] 0.044 | [8] -0.019

Quoted from the entries so far (two entries):
MAX (UniProt P61244)
inactive: ibrutinib -0.026 | [1] -0.019 | ralimetinib -0.012 | [2] -0.034 | [3] -0.001 | [4] 0.09 | [5] 0.001 | [6] 0.001 | [7] 0.009 | [8] -0.036

MED16 (UniProt Q9Y2X0)
inactive: ibrutinib -0.113 | [1] -0.012 | ralimetinib 0.057 | [2] 0.046 | [3] -0.014 | [4] 0.021 | [5] -0.01 | [6] -0.038 | [7] -0.018 | [8] 0.005

(further entries)

MED22 isoform 2 (UniProt Q15528)
inactive: ibrutinib 0.144 | [1] -0.034 | ralimetinib -0.075 | [2] -0.017 | [3] 0.043 | [4] -0.058 | [5] 0.067 | [6] 0.026 | [7] 0.083 | [8] -0.001

MAZ isoform 2 (UniProt P56270)
inactive: ibrutinib 0.119 | [1] -0.006 | ralimetinib 0.013 | [2] -0.108 | [3] 0.102 | [4] 0.011 | [5] 0.023 | [6] 0.074 | [7] -0.054 | [8] 0.023

MEAK7 (UniProt Q6P9B6)
inactive: ibrutinib 0.01 | [1] 0.015 | ralimetinib -0.029 | [2] -0.002 | [3] -0.052 | [4] -0.012 | [5] -0.018 | [6] 0.014 | [7] 0.036 | [8] -0.028

MEMO1 (UniProt Q9Y316)
inactive: ibrutinib -0.007 | [1] 0.013 | ralimetinib -0.016 | [2] -0.031 | [3] -0.032 | [4] -0.003 | [5] 0.037 | [6] 0.012 | [7] -0.011 | [8] 0.038

MFSD5 isoform 2 (UniProt Q6N075)
inactive: ibrutinib -0.025 | [1] -0.112 | ralimetinib 0.108 | [2] 0.019 | [3] 0.079 | [4] 0.13 | [5] 0.049 | [6] -0.01 | [7] -0.073 | [8] 0.038

MED13L (UniProt Q71F56)
inactive: ibrutinib 0.047 | [1] -0.036 | ralimetinib 0.014 | [2] -0.016 | [3] 0.005 | [4] -0.027 | [5] -0.036 | [6] 0.007 | [7] 0.015 | [8] -0.035

METTL5 (UniProt Q9NRN9)
inactive: ibrutinib -0.022 | [1] -0.006 | ralimetinib -0.019 | [2] -0.007 | [3] -0.056 | [4] 0.024 | [5] 0.03 | [6] -0.013 | [7] 0.007 | [8] -0.01

MFN1 (UniProt Q8IWA4)
inactive: ibrutinib 0.128 | [1] -0.062 | ralimetinib -0.003 | [2] -0.144 | [3] 0 | [4] 0.113 | [5] 0.009 | [6] 0.077 | [7] -0.012 | [8] -0.024

MCM2 (UniProt P49736)
inactive: ibrutinib -0.013 | [1] -0.024 | ralimetinib 0.014 | [2] -0.01 | [3] -0.001 | [4] 0.002 | [5] -0.025 | [6] -0.031 | [7] 0.014 | [8] 0.013

MCM7 (UniProt P33993)
inactive: ibrutinib -0.017 | [1] -0.001 | ralimetinib 0.016 | [2] -0.002 | [3] 0.012 | [4] -0.024 | [5] -0.003 | [6] -0.009 | [7] 0.042 | [8] 0.02

ME3 (UniProt Q16798)
inactive: ibrutinib -0.027 | [1] 0.012 | ralimetinib 0.087 | [2] -0.06 | [3] -0.058 | [4] 0.065 | [5] 0 | [6] 0.058 | [7] 0.052 | [8] -0.114

MCRS1 isoform 2 (UniProt Q96EZ8)
inactive: ibrutinib 0.067

MFSD1 isoform 6 (UniProt Q9H3U5)
inactive: ibrutinib 0.223 | [1] -0.032 | ralimetinib 0.087 | [2] 0.038 | [3] -0.04 | [4] -0.039 | [5] -0.066 | [6] 0.013 | [7] -0.113 | [8] -0.013

MBNL1 (UniProt C9JP00)
inactive: ibrutinib 0.016 | [1] -0.034 | ralimetinib -0.013 | [2] 0.001 | [3] 0.028 | [4] 0.063 | [5] 0.033 | [6] -0.069 | [7] -0.055 | [8] 0.004

MED1 (UniProt Q15648)
inactive: ibrutinib 0.024 | [1] 0.013 | ralimetinib -0.031 | [2] -0.003 | [3] 0.005 | [4] -0.011 | [5] -0.011 | [6] -0.01 | [7] 0.018 | [8] 0.002

Retrieved one by one from the list above (2):
MCRS1 isoform 2 (UniProt Q96EZ8)
inactive: ibrutinib 0.067

MBNL1 (UniProt C9JP00)
inactive: ibrutinib 0.016 | [1] -0.034 | ralimetinib -0.013 | [2] 0.001 | [3] 0.028 | [4] 0.063 | [5] 0.033 | [6] -0.069 | [7] -0.055 | [8] 0.004
